Results as given in doi:10.1101/2025.05.04.652107.
These are yes or no findings as the source states them, for the method shown. Binding seen in cells or lysates may run through a third protein. Binding calls can cover weak binding; strength is not graded here.

Biological target: T1, Sialin/Sialin2 (NRK cells) (rat (endogenous in NRK-52E)) (UniProt Q5Q0U0)
T1 sequence: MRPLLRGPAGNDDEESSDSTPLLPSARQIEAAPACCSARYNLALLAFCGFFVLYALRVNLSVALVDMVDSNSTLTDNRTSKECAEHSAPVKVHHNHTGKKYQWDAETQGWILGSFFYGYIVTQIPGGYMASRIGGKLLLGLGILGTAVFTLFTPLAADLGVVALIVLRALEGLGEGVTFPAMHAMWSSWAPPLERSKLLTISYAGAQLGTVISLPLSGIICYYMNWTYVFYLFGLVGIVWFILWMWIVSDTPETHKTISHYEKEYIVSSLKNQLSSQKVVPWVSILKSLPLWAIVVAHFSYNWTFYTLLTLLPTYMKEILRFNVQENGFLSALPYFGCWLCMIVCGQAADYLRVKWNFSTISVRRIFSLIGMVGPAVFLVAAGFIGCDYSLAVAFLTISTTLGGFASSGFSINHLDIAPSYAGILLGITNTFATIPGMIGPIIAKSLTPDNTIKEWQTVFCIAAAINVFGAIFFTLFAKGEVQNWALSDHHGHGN
Experiment: proximity ligation

binding: binds
Substance: epidermal growth factor receptor (EGFR) (NRK cells) (rat (endogenous in NRK-52E))
